This note sets out measurements from article PMC9171067, “A High Throughput Cell-Based Screen Assay for LINE-1 ORF1p Expression Inhibitors Using the In-Cell Western Technique” (Frontiers in Pharmacology, 2022).

Structures are written as SMILES.

In the series the test system is T-47D cells. Description: CCK-8 cell viability (CC50) in T-47D cells. It is filed as cell-based, human. The following applies: CC50/EC50 in T-47D cells. Here is the method: The 50% cytotoxic concentration (CC50) values of 5 drug leads were measured using normal […] cell line HUVEC and breast cancer cell line T-47D at 6 different inhibitor concentrations. HUVEC and T47-D cell lines in the logarithmic phase were reseeded into 96-well plates (Nest Inc.) at a density of 1×10^3 cells/well and the plates were incubated for up to 2 days. At the end of each experiment, cells were incubated with 10 µl of the CCK-8 reagent (Vazyme) at 37°C for 2 h. The optical density (OD) at 450 nm was measured by a microplate reader (PerkinElmer Inc.) according to the manufacturer’s instructions. The data are expressed as % of the control. The experiments were repeated at least three times. The 50% effective concentration (EC50) of 5 drugs were measured using breast cancer cell line T-47D and 6 different inhibitor concentrations.

Consider `c1csc(-c2ccc(-c3cccs3)s2)c1` [#2, 2,2':5′,2″-Terthiophene], for which the “therapeutic index (TI)” value was found to be 2.95. Next, `C#C[C@]1(O)CC[C@H]2[C@@H]3CCc4cc(O)ccc4[C@H]3CC[C@@]21C` [#3, Ethynyl estradiol]: 7.38.
